Data published in PubChem BioAssay AID2551 (National Center for Advancing Translational Sciences (NCATS), 2010).
Out of some 310,000 compounds screened, about 17,000 (5.5%) were called active. The shares of active, inactive and inconclusive entries below differ from those in the screen. Calls follow the shape of the dose curve; as a rule, active = well fitted inhibition curve with a large enough effect; inconclusive = small, poorly fitted or top-dose-only effect, or effect the other way; inactive = no such curve, though single readings can be large or run the other way. A potency beside an inconclusive call is a rough fit, not a confirmed value.

Amino acid sequences for entries named in this document (tags omitted). A change or cut given only in a name is not applied to a line headed by its entry.
UniProt P51450: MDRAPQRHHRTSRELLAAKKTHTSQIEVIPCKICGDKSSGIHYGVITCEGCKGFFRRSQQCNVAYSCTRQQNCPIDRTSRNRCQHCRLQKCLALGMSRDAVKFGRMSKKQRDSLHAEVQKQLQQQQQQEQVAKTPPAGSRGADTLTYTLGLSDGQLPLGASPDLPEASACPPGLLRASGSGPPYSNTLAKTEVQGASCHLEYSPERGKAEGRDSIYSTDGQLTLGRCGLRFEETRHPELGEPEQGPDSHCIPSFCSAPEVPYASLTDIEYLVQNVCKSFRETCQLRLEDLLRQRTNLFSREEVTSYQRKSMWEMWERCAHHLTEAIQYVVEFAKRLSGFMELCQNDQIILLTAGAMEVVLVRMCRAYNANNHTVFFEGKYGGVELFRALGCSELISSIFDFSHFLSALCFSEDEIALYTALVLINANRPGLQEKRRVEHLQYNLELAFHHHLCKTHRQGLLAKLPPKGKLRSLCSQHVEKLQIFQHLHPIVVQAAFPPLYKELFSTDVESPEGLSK

These compounds were tested against Nuclear receptor ROR-gamma (Mus musculus) (UniProt P51450) (assay: qHTS for inhibitors of ROR gamma transcriptional activity). Settings: Drosophila S2 Gal4-RORgamma UAS-luciferase reporter, 20 h; activity change, negative = inhibition: at 53.6 µM (top of the series).
Procedure, shortened: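 Read-out: Photinus luciferase luminescence; inhibitors lower reporter signal. Insect Schneider cells with Gal4-ROR gamma fusion under metallothionein promoter, UAS reporter; 700 uM final copper sulfate induction, 20 hr, ambient temperature.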
% is scaled to controls: 0 for no effect and ±100 for the full control effect; potency is read from the fitted curve at half-maximal effect.
Also: nearly all actives have a fitted effect of over 60% in size.

Row | Compound | Potency | activity change, negative = inhibition
1 | O=C(CSc1ccc(Cl)cc1)Nc1nnc(-c2cccc([N+](=O)[O-])c2)s1 | active: 10 µM | 
2 | C/C(CC(=O)NCc1ccco1)=N\NC(=O)Cc1ccccc1 | inconclusive: 25.1 µM [inhibitor, partial curve, poor fit] | 
3 | CCOC(=O)c1ccc(NC(=O)CCc2nc(-c3ccc(C)cc3)no2)cc1 | inconclusive: 2.82 µM [inhibitor, full curve] | 
4 | Cc1cc(-c2ccccc2)nc(SCc2ccc(C(=O)O)cc2)n1 | inconclusive: 17.8 µM [inhibitor, single point] | 
5 | COCCn1c(SCC(=O)Nc2ccc3c(c2)OCCO3)nc2c(c1=O)SC(C)C2 (configuration not stated) | inconclusive: 35.5 µM [activator, single point] | 
6 | COc1ccccc1CNC(=O)Cc1c[nH]c2ccccc12 |  | inactive: -3.58%
7 | O=C(NCc1ccccn1)c1ccc2nc(C3CCCCC3)oc2c1 | inconclusive: 4.47 µM [activator, partial curve] | 
8 | Cc1cc(C)n(NC(=S)NC2CCCCC2)c(=O)c1C#N |  | inactive: -24.5%
9 | O=C(CN(Cc1ccco1)C(=O)CNS(=O)(=O)c1ccc(Cl)cc1)NCc1ccco1 |  | inactive: 25.5%
10 | CCOC(=O)c1c(C)[nH]c(C(=O)Cn2nnc(-c3ccc(Cl)cc3)n2)c1C |  | inactive: -8.57%
11 | N#CCSc1nc2ccccc2c(=O)n1CCCC(=O)NCc1ccco1 | inconclusive: 15.8 µM [activator, single point] | 
12 | c1ccc2c(Nc3ccc(N4CCOCC4)cc3)nc(N3CCOCC3)nc2c1 | inconclusive: 17.8 µM [activator, single point] | 
13 | CCCc1cc(C(=O)Nc2ccc(C)cc2)no1 | inconclusive: 14.1 µM [activator, partial curve, poor fit] | 
14 | N#CCCn1cc(/C=N/NC(N)=S)c(-c2ccccc2)n1 | active: 6.31 µM | 
15 | COC(=O)CNC(c1ccccc1)c1cc(C)ccc1NS(=O)(=O)c1ccc(C)cc1 (configuration not stated) | inconclusive: 2.82 µM [activator, single point] | 
16 | O=[N+]([O-])c1cc([N+](=O)[O-])c(N2CCCCCC2)cc1NCCO | inconclusive: 35.5 µM [activator, single point] | 
17 | Cc1ccc2nc(-c3cccc(Br)c3)cc(C(=O)Nn3cnnc3)c2c1 | inconclusive: 17.8 µM [inhibitor, single point] | 
18 | Cc1cnc(NC(=O)c2c(Cl)cnn2C)s1 | inconclusive: 35.5 µM [inhibitor, single point] | 
19 | C=C(C)CNC(=S)NNC(=O)CCn1c2ccc(Cl)cc2c2cc(Cl)ccc21 | active: 0.631 µM | 
20 | CC(C)(C)c1ccc(C(=O)NC(=S)NCC2CCCO2)cc1 (configuration not stated) | active: 2.24 µM | 
21 | COc1ccc2c(C)nc(Nc3nc(-c4ccccc4)cc(=O)[nH]3)nc2c1 | active: 4.47 µM | 
22 | CC(C)n1c(O)c(N=NC(=O)C2COc3ccccc3O2)c2ccccc21 (configuration not stated) | inconclusive: 2.82 µM [activator, partial curve] | 
23 | CC(C)OC(=O)CSc1nnc(-c2ccc(O)cc2)n1Cc1ccccc1 | inconclusive: 35.5 µM [inhibitor, single point] | 
24 | CC1CCN(C(=O)c2ccc(NS(=O)(=O)c3cccs3)cc2)CC1 | inconclusive: 0.126 µM [activator, full curve, poor fit] | 

Retrieved by compound from the entries so far, five records:
Row | Compound | Potency | activity change, negative = inhibition
4 | Cc1cc(-c2ccccc2)nc(SCc2ccc(C(=O)O)cc2)n1 | inconclusive: 17.8 µM [inhibitor, single point] | 
14 | N#CCCn1cc(/C=N/NC(N)=S)c(-c2ccccc2)n1 | active: 6.31 µM | 
2 | C/C(CC(=O)NCc1ccco1)=N\NC(=O)Cc1ccccc1 | inconclusive: 25.1 µM [inhibitor, partial curve, poor fit] | 
5 | COCCn1c(SCC(=O)Nc2ccc3c(c2)OCCO3)nc2c(c1=O)SC(C)C2 (configuration not stated) | inconclusive: 35.5 µM [activator, single point] | 
18 | Cc1cnc(NC(=O)c2c(Cl)cnn2C)s1 | inconclusive: 35.5 µM [inhibitor, single point] | 

Continuation.

Row | Compound | Potency | activity change, negative = inhibition
25 | CCc1cc2c(=O)c(-c3cscn3)coc2cc1OC | inconclusive: 0.708 µM [activator, full curve, poor fit] | 
26 | COC(CNC(=O)c1cccnc1)OC |  | inactive: 2.61%
27 | Cc1cccc(C)c1N1CCc2cn[nH]c21 | inconclusive: 15.8 µM [inhibitor, partial curve] | 
28 | CCOc1cc(Cl)c(S(=O)(=O)NCc2cccnc2)cc1Cl | inconclusive: 11.2 µM [activator, single point] | 
29 | CN(C)c1ccc(-c2nc3cc(N)ccc3o2)cc1 | active: 7.94 µM | 
30 | O=C(C1CCN(S(=O)(=O)c2ccccc2)CC1)N1CCN(Cc2ccc3c(c2)OCO3)CC1 | inconclusive: 15.8 µM [activator, single point] | 
31 | C/C(=N/OCC(=O)NCCCCCCNC(=O)CO/N=C(/C)c1cccs1)c1cccs1 | inconclusive: 28.2 µM [activator, single point] | 
32 | O=C(Nc1cccc(S(=O)(=O)N2CCCCC2)c1)c1ccc2ccccc2n1 | inconclusive: 6.31 µM [activator, full curve, poor fit] | 
33 | CN(c1ccccc1)S(=O)(=O)c1cccc(NC(=O)c2ccncc2)c1 | inconclusive: 35.5 µM [activator, single point] | 
34 | CCOC(=O)c1ccc(NC2OC(=O)c3ccccc32)cc1 (configuration not stated) | inconclusive: 0.158 µM [inhibitor, full curve, poor fit] | 
35 | O=C(NNC(=S)NC1CCCCC1)c1ccccc1O | active: 14.1 µM | 
36 | CNC(=S)NNc1nncc2ccccc12 | active: 5.01 µM | 
37 | CCOC(=O)c1c(C)[nH]c(C(=O)N/N=C/c2cccc(OC)c2)c1C | inconclusive: 6.31 µM [activator, partial curve] | 
38 | CCOC(=O)N1CCN(C(=O)CCC(=O)c2ccc(OCC)cc2)CC1 |  | inactive: 20.3%
39 | O=C(c1ccccc1)C(CCC(CN1CCOCC1)C(=O)c1ccccc1)CN1CCOCC1 (configuration not stated) | inconclusive: 11.2 µM [inhibitor, partial curve, poor fit] | 
40 | N#CCc1c(C#N)c(N)nc(N2CCCC(CO)C2)c1C#N (configuration not stated) | inconclusive: 0.0631 µM [inhibitor, full curve, poor fit] | 
41 | CCCCOc1ccc(C(=O)N/C(=C/C=C/c2ccccc2)C(=O)NC)cc1 |  | inactive: -10.1%
42 | O=S(=O)(Nc1cccnc1)c1ccc(Br)c2ccccc12 | inconclusive: 31.6 µM [activator, single point] | 
43 | Cc1ccc(S(=O)(=O)N2CCN(CC(=O)Nc3ccc([N+](=O)[O-])cc3)CC2)cc1C | inconclusive: 12.6 µM [activator, single point] | 
44 | S=C(Nc1ccc(Cl)cc1)NC1CC2CCCC(C1)N2C1CC1 (configuration not stated) | inconclusive: 3.16 µM [inhibitor, full curve, poor fit] | 
45 | Cc1ccc(S(=O)(=O)N2CCCCC2)cc1NC(=O)CCOc1ccccc1 | inconclusive: 20 µM [activator, single point] | 
46 | CCn1c(-c2cc(Br)cc(OC)c2O)nc2cc(S(=O)(=O)N(C)C)ccc21 | active: 3.55 µM | 
47 | Cc1ccc(S(=O)(=O)N2CCN(C(=O)c3cc4c(C)nn(-c5ccccc5)c4s3)CC2)cc1 | inconclusive: 6.31 µM [activator, single point] | 
48 | O=C(/C=C/c1ccc(F)cc1)Nc1nc2ccccc2[nH]1 | inconclusive: 2.82 µM [inhibitor, partial curve, poor fit] | 

Row | Compound | Potency | activity change, negative = inhibition
49 | COc1ccc(-c2csc(Cc3nc(O)cs3)n2)cc1 | inconclusive: 12.6 µM [inhibitor, partial curve, poor fit] | 
50 | O=C(Nc1cccc2ccccc12)c1ccc([N+](=O)[O-])o1 | inconclusive: 14.1 µM [inhibitor, single point] | 
51 | COc1ccc(NC(=O)c2cc3c(COC(C)=O)cnc(C)c3oc2=Nc2cccc(C(=O)O)c2)c(OC)c1 |  | inactive: 0.532%
52 | CN1C(=CC=C2C=C(I)C(=O)C(I)=C2)C(C)(C)c2ccccc21 | inconclusive: 2.24 µM [inhibitor, partial curve] | 
53 | CC(C)(C)c1cc(-c2n[nH]c(=S)n2-c2ccc(Cl)cc2)n[nH]1 | active: 7.08 µM | 
54 | O=C(Nc1cccc(F)c1)N(Cc1ccc(Cl)cc1)CC(O)C(F)(F)F (configuration not stated) | inconclusive: 11.2 µM [inhibitor, partial curve, poor fit] | 
55 | O=C(/C=C/c1ccccc1)c1c[nH]c2ccccc12 | inconclusive: 5.01 µM [inhibitor, partial curve] | 
56 | Cc1ccc(-c2nnnn2C2C/C(=N\NC(N)=S)C3OCC2O3)cc1 (configuration not stated) | active: 10 µM | 
57 | O=C(Nc1ccccc1O)c1cc(S(=O)(=O)N2CCOCC2)c(Cl)cc1Cl | inconclusive: 20 µM [activator, single point] | 
58 | Cc1ccc(C(=O)NC(=S)NNC(=O)CC#N)cc1 | active: 10 µM | 
59 | Fc1ccc(NC(=S)NCCc2ccccn2)cc1 | active: 10 µM | 
60 | COCCN(C(=S)Nc1c(C)cc(C)cc1C)C(C)c1cccnc1 (configuration not stated) | inconclusive: 14.1 µM [inhibitor, single point] | 
61 | CC1=C(C(=O)N2CCN(c3cc(C)ccc3C)CC2)C2(CCC(C)CC2)OC1=O (configuration not stated) |  | inactive: 4.59%
62 | O=C(Cc1cccs1)N/N=C/C(Cl)=C/c1ccccc1 | inconclusive: 0.224 µM [activator, full curve, poor fit] | 
63 | COc1ccc(N2CCN(c3ncnc4c3[nH]c3ccccc34)CC2)cc1 | inconclusive: 35.5 µM [inhibitor, single point] | 
64 | Cc1cccc(C(C)Nc2ccc([N+](=O)[O-])cn2)c1 (configuration not stated) |  | inactive: 12.6%
65 | CCOc1ccc(C(=O)Nc2ncccc2Cl)cc1 |  | inactive: 17.5%
66 | O=C1CC(C(=O)Nc2ccc(F)cc2)S/C(=N\N=C\c2ccco2)N1 (configuration not stated) | inconclusive: 7.08 µM [inhibitor, partial curve] | 
67 | O=Nc1ccc(NOC(=O)c2ccccc2)cc1 | inconclusive: 14.1 µM [inhibitor, single point] | 
68 | CC(C)CN1CCN(Cc2cccn2-c2ccccn2)CC1CCO (configuration not stated) |  | inactive: 7.63%
69 | C=CCSc1n[nH]c2nc3c(c(=O)n12)C1(CCCC1)Cc1ccccc1-3 | active: 5.62 µM | 
70 | O=C(/C=C/c1ccc(F)cc1)NC(=S)NNC(=O)c1cccnc1 | active: 11.2 µM | 
71 | O=C(N(Cc1ccccc1)c1ccccn1)C12CC3CC(CC(C3)C1)C2 |  | inactive: -26.1%
72 | CC(=N\Nc1ccc(Cl)cc1)/C(=N/O)C(=O)Nc1ccccc1 | inconclusive: 14.1 µM [activator, single point] | 
